Results: article PMC2424011

Columns and labels:
[1] = molecular target: T1, sFRP-3-HA protein (mouse) (UniProt P97401); assay: cross-linking; purified sFRP-3-HA incubated 1 hr at 4°C with increasing amount of recEGF, DTSSP cross-linked, Western blot with anti-HA; both purified
T1 sequence: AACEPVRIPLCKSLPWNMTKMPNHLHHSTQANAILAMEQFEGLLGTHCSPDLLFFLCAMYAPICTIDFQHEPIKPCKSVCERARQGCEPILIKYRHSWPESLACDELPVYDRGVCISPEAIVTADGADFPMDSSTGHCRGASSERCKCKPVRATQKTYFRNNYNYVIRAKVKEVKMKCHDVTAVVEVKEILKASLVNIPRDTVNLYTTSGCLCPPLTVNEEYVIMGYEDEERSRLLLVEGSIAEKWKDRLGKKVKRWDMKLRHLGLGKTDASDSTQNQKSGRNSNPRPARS

[2] = molecular target: T1, sFRP-3-HA protein (mouse); assay: cross-linking + co-IP; 1 µg purified sFRP-3-HA with 1 µg recEGF in PBS, 2 hours at 4°C; 5 mM DTSSP 1 hr at 4°C, quenched with 20 mM Tris pH 7.5; immunoprecipitated with anti-HA affinity matrix; non-reducing SDS-PAGE, blot with anti-EGF; both purified
[3] = molecular target: recombinant mouse EGF (mouse); assay: pull-down; heparin-immobilized acrylic beads saturated overnight at 4°C with 5 µg growth factor in PBS 0.2% BSA; incubated 2 hours at room temperature with 5-50 µl sFRP-3-HA conditioned medium; 3 washes in PBS; blot with anti-HA; only the target purified

**Q.** recombinant mouse EGF (ligand) was tested. Which binding [1] did it give?
**A.** binds

**Q.** What about the binding [2] of the same molecule?
**A.** binds

B1: sFRP-3-HA protein (protein, UniProt P97401 33-323)
chain: AACEPVRIPLCKSLPWNMTKMPNHLHHSTQANAILAMEQFEGLLGTHCSPDLLFFLCAMYAPICTIDFQHEPIKPCKSVCERARQGCEPILIKYRHSWPESLACDELPVYDRGVCISPEAIVTADGADFPMDSSTGHCRGASSERCKCKPVRATQKTYFRNNYNYVIRAKVKEVKMKCHDVTAVVEVKEILKASLVNIPRDTVNLYTTSGCLCPPLTVNEEYVIMGYEDEERSRLLLVEGSIAEKWKDRLGKKVKRWDMKLRHLGLGKTDASDSTQNQKSGRNSNPRPARS
**Q.** How did the binding [3] turn out when B1 was run?
**A.** binds

These are yes or no findings as the source states them, for the method shown. Binding can be weak; no strength is given. Tags and fused reporters may be left off the sequences shown. For part of these data: In cells and extracts the contact can be indirect.
